Test results: US10947546B2, “Methods and compositions for translational profiling and molecular phenotyping” (The Rockefeller University, priority 2008, dated 2021)
For at least one compound, name, drawing or mass did not settle the structure.

What was measured:
[1] = tested on: striatopallidal (D2) MSNs; assay: BACarray (TRAP) translational profiling after acute cocaine, D2 cells (Table 15); conditions: acute cocaine 20 mg/kg, 4 h
striatonigral (D1) MSNs [2] = assay: BACarray (TRAP) translational profiling after acute cocaine, D1 cells (Table 15); conditions: acute cocaine 20 mg/kg, 4 h
striatonigral (D1) MSNs [3] = assay: BACarray (TRAP) translational profiling after chronic cocaine, D1 cells (Table 16); conditions: chronic cocaine 20 mg/kg once daily fifteen days
[4] = tested on: striatopallidal (D2) MSNs; assay: BACarray (TRAP) translational profiling after chronic cocaine, D2 cells (Table 16); conditions: chronic cocaine 20 mg/kg once daily fifteen days

Which Fosb expression change [1] does the source give for `COC(=O)[C@H]1[C@@H](OC(=O)c2ccccc2)C[C@@H]2CC[C@H]1N2C` [cocaine] here?
Its Fosb expression change is “up”.

And the Homerl expression change [1]?
Its Homerl expression change is “up”.

And the Per2 expression change [1]?
The Per2 expression change was “up”.

What about the Zfp64 expression change [1] of the same compound?
Its Zfp64 expression change is “up”.

What about the Cartpt expression change (striatonigral (D1) MSNs [2]) of the same compound?
The Cartpt expression change was “up”.

And the Fosb expression change (striatonigral (D1) MSNs [2])?
Its Fosb expression change is “up”.

What about the Homerl expression change (striatonigral (D1) MSNs [2]) of the same compound?
The Homerl expression change was “up”.

What about the Fosb expression change (striatonigral (D1) MSNs [3]) of the same compound?
Its Fosb expression change is “up”.

And the Homerl expression change (striatonigral (D1) MSNs [3])?
The Homerl expression change was “up”.

What about the Kcnd2 expression change (striatonigral (D1) MSNs [3]) of the same compound?
Its Kcnd2 expression change is “up”.

And the Per2 expression change (striatonigral (D1) MSNs [3])?
The Per2 expression change was “up”.

What about the Vamp2 expression change (striatonigral (D1) MSNs [3]) of the same compound?
Its Vamp2 expression change is “up”.

What about the Homerl expression change [4] of the same compound?
The Homerl expression change was “up”.

And the Per2 expression change [4]?
The Per2 expression change was “up”.

What about the Zfp64 expression change [4] of the same compound?
Its Zfp64 expression change is “down”.
